Results: PMC8556269
No constants are given. Whether binding was seen depends on the method and setting. In cells and extracts the contact can be indirect. Some entries that bind do so weakly or less than the wild type.

Target: T1, Wild-type p53-induce phosphatase 1 (Wip1) (mouse (endogenous in murine MSCs)) (UniProt Q9QZ67)
T1 sequence: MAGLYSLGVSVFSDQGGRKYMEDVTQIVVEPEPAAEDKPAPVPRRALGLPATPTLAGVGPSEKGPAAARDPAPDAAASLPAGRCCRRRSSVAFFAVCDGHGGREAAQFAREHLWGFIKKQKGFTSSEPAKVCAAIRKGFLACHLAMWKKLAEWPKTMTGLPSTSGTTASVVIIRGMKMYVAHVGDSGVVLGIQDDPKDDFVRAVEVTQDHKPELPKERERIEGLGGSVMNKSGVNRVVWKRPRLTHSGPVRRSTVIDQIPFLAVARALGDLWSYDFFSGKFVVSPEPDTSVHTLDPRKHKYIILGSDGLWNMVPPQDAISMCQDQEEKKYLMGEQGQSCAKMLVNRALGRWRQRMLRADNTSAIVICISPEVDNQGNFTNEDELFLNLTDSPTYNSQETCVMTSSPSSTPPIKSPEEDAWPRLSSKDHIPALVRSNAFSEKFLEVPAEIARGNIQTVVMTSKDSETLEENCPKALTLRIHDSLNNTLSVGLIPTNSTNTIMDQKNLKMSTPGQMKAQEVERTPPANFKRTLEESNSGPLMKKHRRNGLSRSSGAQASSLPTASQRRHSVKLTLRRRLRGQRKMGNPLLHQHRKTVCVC
Assay: co-IP; endogenous co-IP from murine MSCs lysed in RIPA lysis buffer at 4 °C; supernatant incubated with Wip1 Rabbit mAb or control IgG overnight, protein A/G agarose beads 2 h, washed with diluted lysis buffer, western blot

B1: bone marrow stromal cell antigen 2 (BST2) (protein, UniProt Q8R2Q8 1-152)
chain: MAPSFYHYLPVPMDEMGGKQGWGSHRQWLGAAILVVLFGVTLVILTIYFAVTANSVACRDGLRAQAECRNTTHLLQRQLTRTQDSLLQAETQANSCNLTVVTLQESLEKKVSQALEQQARIKELENEVTKLNQELENLRIQKETSSTVQVNS
In the case of B1, the binding is reported as “binds”.
